Data: patent US12291581B2, “Serpin peptides and methods of using the same” (SERPIN PHARMA, LLC, priority 2012, dated 2025)
“Also recorded” adds a separate entry of the source. Not every detail of the peptide structures is certain; ends, links or a residue may be inferred. For some assays here: At least one compound was matched to its structure with a doubt left. Some of these results come from one statement about several compounds together.

Sequences of proteins named here, by UniProt entry; tags and fusion partners are left off. Residues count along the entry.
UniProt Q9QUN7, 25-784: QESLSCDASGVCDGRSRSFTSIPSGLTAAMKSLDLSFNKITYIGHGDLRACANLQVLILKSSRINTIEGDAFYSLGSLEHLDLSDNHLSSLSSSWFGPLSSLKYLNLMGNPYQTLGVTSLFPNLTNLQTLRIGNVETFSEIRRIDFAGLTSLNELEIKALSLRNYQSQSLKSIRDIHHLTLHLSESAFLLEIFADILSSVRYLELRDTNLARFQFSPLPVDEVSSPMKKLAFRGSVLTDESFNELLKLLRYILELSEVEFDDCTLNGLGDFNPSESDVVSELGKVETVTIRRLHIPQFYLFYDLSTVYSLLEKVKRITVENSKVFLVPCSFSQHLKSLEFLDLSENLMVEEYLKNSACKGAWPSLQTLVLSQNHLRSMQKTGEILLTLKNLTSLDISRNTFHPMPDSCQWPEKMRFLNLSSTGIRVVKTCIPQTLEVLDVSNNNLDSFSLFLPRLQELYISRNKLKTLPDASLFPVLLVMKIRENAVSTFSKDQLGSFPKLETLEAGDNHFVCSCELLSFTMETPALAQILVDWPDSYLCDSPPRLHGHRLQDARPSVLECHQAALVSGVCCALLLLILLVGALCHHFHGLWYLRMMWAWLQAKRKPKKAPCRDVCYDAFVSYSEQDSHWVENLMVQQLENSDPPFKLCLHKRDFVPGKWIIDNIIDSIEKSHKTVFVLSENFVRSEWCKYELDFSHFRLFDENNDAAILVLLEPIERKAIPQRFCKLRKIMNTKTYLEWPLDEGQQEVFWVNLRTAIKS
UniProt O00206, 24-839, species assumed: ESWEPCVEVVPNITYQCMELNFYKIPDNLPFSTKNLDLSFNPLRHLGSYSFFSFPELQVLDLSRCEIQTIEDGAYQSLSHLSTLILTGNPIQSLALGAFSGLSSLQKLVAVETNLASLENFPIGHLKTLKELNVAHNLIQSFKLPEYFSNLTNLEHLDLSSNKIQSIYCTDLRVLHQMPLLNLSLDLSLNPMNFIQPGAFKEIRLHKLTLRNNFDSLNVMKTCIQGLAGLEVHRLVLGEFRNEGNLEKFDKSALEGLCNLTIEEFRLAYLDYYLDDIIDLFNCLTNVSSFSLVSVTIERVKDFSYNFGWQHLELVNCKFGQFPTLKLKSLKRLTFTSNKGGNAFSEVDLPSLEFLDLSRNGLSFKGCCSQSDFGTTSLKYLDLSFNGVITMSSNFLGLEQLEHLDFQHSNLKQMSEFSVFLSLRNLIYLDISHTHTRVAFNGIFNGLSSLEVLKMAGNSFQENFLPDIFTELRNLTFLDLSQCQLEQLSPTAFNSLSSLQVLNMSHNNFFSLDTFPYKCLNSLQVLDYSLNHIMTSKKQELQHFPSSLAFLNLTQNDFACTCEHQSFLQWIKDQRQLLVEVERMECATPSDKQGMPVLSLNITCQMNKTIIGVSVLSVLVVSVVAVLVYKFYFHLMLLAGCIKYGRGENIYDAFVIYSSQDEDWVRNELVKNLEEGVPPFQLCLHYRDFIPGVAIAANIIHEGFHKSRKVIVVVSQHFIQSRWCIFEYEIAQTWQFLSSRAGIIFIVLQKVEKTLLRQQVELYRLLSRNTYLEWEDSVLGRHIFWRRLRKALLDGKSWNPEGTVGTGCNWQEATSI

Tests used:
TLR-2 = molecular target: T1, TLR-2 (Mus musculus, UniProt Q9QUN7); test: TLR-2 indicator cell line assay (HEK-Blue mTLR2), secreted alkaline phosphatase; assay type: cell-based; conditions: 24 hours; for impact on TLR-2 signaling, alanine scan, FIG. 12/13: 20 μg/ml peptide
T1 construct: host or cells: HEK-Blue mTLR2 (HEK293-derived reporter line, SEAP read-out)
Method: (§1) Graph summarizing representative data from assays with an engineered TLR-2 indicator cell line (HEK-Blue™ mTLR2, Invivogen). Cells were incubated with the indicated concentrations of peptide for 24 hours. Upon TLR2 activation, the cells secrete alkaline phosphatase which can be assayed. The assay was done in triplicate and averages with standard deviations are plotted.
Graph summarizing data from an experiment where an engineered TLR-2 indicator cell line (HEK-Blue™ mTLR2, Invivogen) was used to test the impact of substituting amino acid residues of the SP16 peptide with alanine (“alanine scan”). Cells were incubated with 20 μg/ml of the indicated peptides for 24 hours. Upon TLR2 activation, the cells secrete alkaline phosphatase which can be assayed. The assay was done in triplicate and averages are plotted. Peptide sequences are shown in the following figure. *p<0.05, compared with scrambled control (SP34).
We also performed a peptide optimization assay using an alanine scan with the TLR-2 assay. Data was obtained using an experiment with an engineered TLR-2 indicator cell line (HEK-BLUE™ mTLR2, Invivogen). Cells were incubated with the 20 μg/ml of the indicated peptides for 24 hours. Upon TLR2 activation, the cells secrete alkaline phosphatase, which can be assayed. The assay was done in triplicate and averages are plotted. Peptide SP34 is a scrambled peptide control (Yellow), and PAM (Pam3CSK4; Red) is a positive control. See, e.g., FIG. 12.
as §1, with “summarizing” for “summarizing representative”, “an experiment” for “assays”, “(HEK-BLUE™” for “(HEK-Blue™”

db/db mice = test: db/db mouse model of type II diabetes; assay type: in vivo; conditions: for Non-fasted blood glucose: IP twice a week for 5 weeks, 0.6 mg/kg SP16, 0.6 mg/kg
Balb/c mice, CAIA model = test: Collagen antibody induced arthritis (CAIA) model of rheumatoid arthritis; assay type: in vivo, mouse
TLR-4 = molecular target: T2, TLR-4 (Homo sapiens, UniProt O00206); test: TLR-4 signaling in engineered cell lines; assay type: cell-based
T2 construct: expressed in transfected cells

[1] = system: primary human synoviocytes; test: IL1b-stimulated MMP1 secretion by primary human synoviocytes; assay type: cell-based; conditions: 10 uM peptide, 48 hours, at 20 ng/ml IL1b, compared to scrambled control peptides
[2] = system: mouse RAW (macrophage) cells; test: LPS-induced IL-6 secretion by RAW (macrophage) cells, ELISA; assay type: cell-based; conditions: 20 or 40 ug/ml SP16; 0, 2.5, 5 or 10 ng/ml LPS; 24 hours
NOD mice = test: NOD mouse spontaneous autoimmune (type I) diabetes model; assay type: in vivo; conditions: groups of 12 NOD mice, vs scrambled control peptide
Method: Groups of 12 animals were injected with SP16, hAAT or scrambled control peptide. Non-fasted blood glucose levels were measured twice a week and animals with two consecutive readings greater than 300 mg/dl were considered diabetic.
NOD (non-obese diabetic) mice spontaneously develop overt, insulin-dependent type I diabetes. The NOD model is recommended by the FDA for preclinical testing of therapeutic agents for type I diabetes. Disease onset typically occurs at 12-14 weeks of age, with peri-insulitis detectable from about 4 weeks of age and developing into severe insulitis at 10 weeks of age. The autoimmune destruction of β-cells is thought to arise from dysregulation of multiple tolerance pathways, leading to islet infiltration with monocytes, predominantly CD4^+ and CD8^+ T cells, and insulitis, with subsequent hypoinsulinemia and hyperglycemia.

THP1 cells = test: LPS-induced NFκB activation in THP1 cells; assay type: cell-based; conditions: in vitro
[3] = five-week old db/db mice, vs vehicle

In the case of “SP53: SP16 with one of residues 1-3 individually substituted with alanine (inside range SP52-SP54) (VAFNKPFVFLMIEQNTK)”, the “impact on TLR-2 signaling, alanine scan, FIG. 12/13” value (“impact on TLR-2 signaling” for short) (TLR-2) is reported as “retain the ability to stimulate TLR-2”.

For `CN(CCOc1ccc(CC2SC(=O)NC2=O)cc1)c1ccccn1` (centres unmarked) [Rosiglitazone, reference compound], the Non-fasted blood glucose (db/db mice; [3]) was “better values than the SP16 group; also recorded: significantly lowered”.

“SP54: SP16 with one of residues 1-3 individually substituted with alanine (VKANKPFVFLMIEQNTK)” was tested, and the “impact on TLR-2 signaling” value (TLR-2) was “retain the ability to stimulate TLR-2”.

In the case of “SP52: SP16 with one of residues 1-3 individually substituted with alanine (AKFNKPFVFLMIEQNTK)”, the “impact on TLR-2 signaling” value (TLR-2) is reported as “retain the ability to stimulate TLR-2”.

With `CC[C@H](C)[C@H](NC(=O)[C@H](CCSC)NC(=O)[C@H](CC(C)C)NC(=O)[C@H](Cc1ccccc1)NC(=O)[C@@H](NC(=O)[C@H](Cc1ccccc1)NC(=O)[C@@H]1CCCN1C(=O)[C@H](CCCCN)NC(=O)[C@H](CC(N)=O)NC(=O)[C@H](Cc1ccccc1)NC(=O)[C@H](CCCCN)NC(=O)[C@@H](N)C(C)C)C(C)C)C(=O)N[C@@H](CCC(=O)O)C(=O)N[C@@H](CCC(N)=O)C(=O)N[C@@H](CC(N)=O)C(=O)N[C@H](C(=O)N[C@@H](CCCCN)C(=O)O)[C@@H](C)O` [SP16] the “hyperglycemia / glycemic control” value (db/db mice; blood glucose and HbA1c, 0.6 mg/kg SP16 twice a week) was “reduces hyperglycemia and improves glycemic control”, the “serum TGF-beta levels” value (db/db mice; eight-week old diabetic db/db mice, 0.6 mg/kg SP16 biweekly for 12 weeks) was “increased TGF-beta levels” and the “serum CRP levels” value (db/db mice; eight-week old diabetic db/db mice, 0.6 mg/kg SP16 biweekly for 12 weeks, vs vehicle) was “lowered serum CRP levels”. For the same compound, the HbA1c levels (db/db mice; five-week old db/db mice, 0.6 mg/kg SP16 twice a week, end of study) was “lowered”, the “serum C-peptide levels” value (db/db mice; five-week old db/db mice, 0.6 mg/kg SP16 twice a week, pooled serum) was “increased” and the Non-fasted blood glucose (db/db mice; [3]) was “significantly lowered”. The “average cumulative swelling (clinical) scores for all paws, Day 7, FIG. 16” value (Balb/c mice, CAIA model; SP16 daily intraperitoneal injection, 12 ug/animal) was “protection equivalent to daily administration of 1 mg/kg Dexamethasone”, the “efficacy of oral administration in CAIA model, FIG. 16” value (Balb/c mice, CAIA model; SP16 daily oral gavage, 25 or 50 ug/animal) was “efficacious” and the “cumulative swelling scores for all paws at peak of disease (Day 7), FIG. 9” value (Balb/c mice, CAIA model; daily SP16 injection, 12 μg/day, groups of 5) was “protection equivalent to Dexamethasone”. The “reduction of inflammation compared to vehicle control, FIG. 9” value (Balb/c mice, CAIA model; injections of 12 μg SP16 once every 3 days) was ~50%, the “TLR-2 signaling (TLR2 induction), FIG. 11” value (TLR-2; indicated concentrations of peptide, triplicate) was “activates the TLR-2 signaling pathway; also recorded: inducing TLR-2 signaling in a dose dependent manner” and the TLR-4 signaling (TLR-4) was “not TLR-4 signaling”. For the same compound, the MMP1 secretion [1] was “lowered MMP1 secretion”, the “LPS-induced IL-6 secretion” value [2] was “lowered LPS-induced IL-6 secretion” and the “incidence / development of diabetes (two consecutive non-fasted glucose readings greater than 300 mg/dl)” value (NOD mice) was “delay and/or prevent development of type I diabetes; also recorded: delayed and reduced the incidence of diabetes”. The “LPS-induced NFκB activation” value (THP1 cells) was “lowers LPS-induced NFκB activation”.
